ChEMBL document CHEMBL5120742, “Multi-target weapons: diaryl-pyrazoline thiazolidinediones simultaneously targeting VEGFR-2 and HDAC cancer hallmarks” (RSC Med Chem, 2021)

Experiments:
MCF7 = test: Antiproliferative activity against human MCF7 cells assessed as reduction in cell viability after 48 hrs by MTT assay; type: functional, cell-based; conditions: MCF7, 48 h
In short: (§1)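 MCF-7, K562, A549 and HT-29 lines were seeded in 96-well plates and kept overnight at 37 °C, 5% CO2, 95% humidity. They were then exposed to six concentrations (100 to 2.5) for 48 h. After PBS washes, MTT was added for 4 h at 37 °C and formazan was dissolved in DMSO. Absorbance was read at 570 nm. Survival is mean OD of treated wells over the negative control, and IC50 was derived from that.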

A549 = test: Antiproliferative activity against human A549 cells assessed as reduction in cell viability after 48 hrs by MTT assay; type: functional, cell-based; conditions: A549, 48 h; in short: as §1

IC50 (MCF7): 350 nM
IC50 (A549): 290 nM
SMILES: CC(=O)O[C@H]1C(=O)[C@@]2(C)[C@H]([C@H](OC(=O)c3ccccc3)[C@]3(O)C[C@H](OC(=O)[C@H](O)[C@@H](NC(=O)c4ccccc4)c4ccccc4)C(C)=C1C3(C)C)[C@]1(OC(C)=O)CO[C@@H]1C[C@@H]2O [PACLITAXEL]
